These are yes or no findings as the source states them, for the method shown. Binding seen in cells or lysates may run through a third protein. Some binding calls cover weakened binding; strength is not graded here. Tags and fused reporters may be left off the sequences shown.
Columns and labels:
[1] = molecular target: T1, LST-1^V5 (3xV5 epitope-tagged LST-1) (C. elegans) (UniProt P91820); test: co-IP; whole worms (glp-1(gf ts) adults with germline tumors, at least 10^6), cross-linked with 1% formaldehyde; lysis buffer with 1 M urea; epitope-tagged LST-1 immunoprecipitated with anti-V5 or anti-FLAG on protein G Dynabeads, 4 h at 4°C with RNase A 10 μg/ml; washes up to 0.5 M NaCl; western blot
T1 sequence: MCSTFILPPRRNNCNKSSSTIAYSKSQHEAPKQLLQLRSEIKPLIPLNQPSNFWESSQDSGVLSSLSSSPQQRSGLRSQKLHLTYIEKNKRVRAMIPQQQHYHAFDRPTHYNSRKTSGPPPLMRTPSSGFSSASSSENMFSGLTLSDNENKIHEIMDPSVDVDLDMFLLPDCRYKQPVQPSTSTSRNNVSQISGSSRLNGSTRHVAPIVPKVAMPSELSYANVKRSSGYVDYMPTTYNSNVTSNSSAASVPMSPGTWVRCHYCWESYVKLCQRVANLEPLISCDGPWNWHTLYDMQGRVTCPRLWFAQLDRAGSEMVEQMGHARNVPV

[2] = molecular target: T1, LST-1^V5 (3xV5 epitope-tagged LST-1) (C. elegans); test: co-IP; whole worms, without formaldehyde cross-linking and without urea; lysates with or without Benzonase before immunoprecipitation of LST-1^V5 with anti-V5; western blot

- binding [1]: binds
- binding [2]: binds
B1: FBF-1^FLAG (protein, UniProt Q9N5M6 1-614)
chain: MDQSKMRYTNQFRKTPQKPTSTEVGNHHTPAHSPMAQHETSMWNFNSLNPYFSMLNMNDGMNYARHQQNHIVTSRPPTPLTDLMSLRSFQSFPNVFMPVSRSRTSSFIQSDTDSSRLEPDDFSQNVRYCSTEIDRNNSSSKNDHLKYSRPALSRNSRSFTRSNNVLPTWSLDSNGEMRSRLSLSEVLDSGDLMKFAVDKTGCQFLEKAVKGSLTSYQKFQLFEQVIGRKDDFLKLSTNIFGNYFVQEIIGMSLTTYDDDNIKRQEKLKNFISSQMTDMCLDKFACRVIQSSLQNMDLSLACKLVQALPRDARLIAICVDQNANHVIQKVVAVIPLKNWEFIVDFVATPEHLRQICFDKYGCRVVQTIIEKLTADSINVDLTSAAQHLRERALQRLMTSVTNRCQELATNEYANYIIQHIVSNDDLAVYRECIIEKCLMRNLLSLSQEKFASHVVEKAFLHAPMELLAEMMDEIFDGYMPHPGTGKDALDIMMFHQFGNYVVQCMLTICCDAVSGRRQTKEGSYDHANSFQVWLKKLHSRVTKERHRLSRFSSGKKMIETLAHLRSTHPIYGLQSSGHESFKTDCFSTASEHDGLELEKNGIEEGNLRLMRTFSP

Reference: publication PMC10259659
